In this assay the target is DPP9-short (reference isoform), YFP-tagged (human), Q86TI2. Put plainly: co-IP. The conditions noted are these: remark: other sources report otherwise.

Results are given in words; binding and its absence hold for the method and conditions named. In cells and extracts the contact can be indirect. Some results given as binding are weak or reduced against the parent protein; the word gives no strength. Sequences can lack the tags named with a protein.

B1: FLAG-tagged NLRP1, Q9C000 1-1473 (protein)
chain: MAGGAWGRLACYLEFLKKEELKEFQLLLANKAHSRSSSGETPAQPEKTSGMEVASYLVAQYGEQRAWDLALHTWEQMGLRSLCAQAQEGAGHSPSFPYSPSEPHLGSPSQPTSTAVLMPWIHELPAGCTQGSERRVLRQLPDTSGRRWREISASLLYQALPSSPDHESPSQESPNAPTSTAVLGSWGSPPQPSLAPREQEAPGTQWPLDETSGIYYTEIREREREKSEKGRPPWAAVVGTPPQAHTSLQPHHHPWEPSVRESLCSTWPWKNEDFNQKFTQLLLLQRPHPRSQDPLVKRSWPDYVEENRGHLIEIRDLFGPGLDTQEPRIVILQGAAGIGKSTLARQVKEAWGRGQLYGDRFQHVFYFSCRELAQSKVVSLAELIGKDGTATPAPIRQILSRPERLLFILDGVDEPGWVLQEPSSELCLHWSQPQPADALLGSLLGKTILPEASFLITARTTALQNLIPSLEQARWVEVLGFSESSRKEYFYRYFTDERQAIRAFRLVKSNKELWALCLVPWVSWLACTCLMQQMKRKEKLTLTSKTTTTLCLHYLAQALQAQPLGPQLRDLCSLAAEGIWQKKTLFSPDDLRKHGLDGAIISTFLKMGILQEHPIPLSYSFIHLCFQEFFAAMSYVLEDEKGRGKHSNCIIDLEKTLEAYGIHGLFGASTTRFLLGLLSDEGEREMENIFHCRLSQGRNLMQWVPSLQLLLQPHSLESLHCLYETRNKTFLTQVMAHFEEMGMCVETDMELLVCTFCIKFSRHVKKLQLIEGRQHRSTWSPTMVVLFRWVPVTDAYWQILFSVLKVTRNLKELDLSGNSLSHSAVKSLCKTLRRPRCLLETLRLAGCGLTAEDCKDLAFGLRANQTLTELDLSFNVLTDAGAKHLCQRLRQPSCKLQRLQLVSCGLTSDCCQDLASVLSASPSLKELDLQQNNLDDVGVRLLCEGLRHPACKLIRLGLDQTTLSDEMRQELRALEQEKPQLLIFSRRKPSVMTPTEGLDTGEMSNSTSSLKRQRLGSERAASHVAQANLKLLDVSKIFPIAEIAEESSPEVVPVELLCVPSPASQGDLHTKPLGTDDDFWGPTGPVATEVVDKEKNLYRVHFPVAGSYRWPNTGLCFVMREAVTVEIEFCVWDQFLGEINPQHSWMVAGPLLDIKAEPGAVEAVHLPHFVALQGGHVDTSLFQMAHFKEEGMLLEKPARVELHHIVLENPSFSPLGVLLKMIHNALRFIPVTSVVLLYHRVHPEEVTFHLYLIPSDCSIRKAIDDLEMKFQFVRIHKPPPLTPLYMGCRYTVSGSGSGMLEILPKELELCYRSPGEDQLFSEFYVGHLGSGIRLQVKDKKDETLVWEALVKPGDLMPATTLIPPARIAVPSPLDAPQLLHFVDQYREQLIARVTSVEVVLDKLHGQVLSQEQYERVLAENTRPSQMRKLFSLSQSWDRKCKDGLYQALKETHPHLIMELWEKGSKKGLLPLSS
With B1, the binding result is on record as “binds”.

(Values after paper doi:10.1101/2025.07.24.666385.)
